Data as given in PubChem BioAssay AID1259254 (NCATS, 2017).
Here is a random part of about 59,000 reagents tested. In the full data, about 1,550 (2.6%) got an active call. 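G2 share is only a proxy for re-replication; each gene was hit by three separate siRNAs, and active genes were retested.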 Raw values are not corrected between plates. Reagents against one gene are numbered here. The record does not give: the amount of reagent.

Assay: 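Genome-wide screen for genes that prevent DNA re-replication in cancer cells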 (primary screen)
Cell system: human HCT116 colorectal cancer cells
Knock-down reagent: single siRNA against human genes
Time to read-out: 3 days
Detection: 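Imaged Hoechst DNA stain sorts each cell into a cycle phase by DNA amount; per plate, G2 fraction set to 0% for non-targeting and 100% for GMNN siRNA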
Scale: G2 robust z-score and G2 cells, % of GMNN control: higher = more G2 cells, more excess DNA replication; raw share of cells in G2: higher = larger share of cells with G2 DNA content
Rule for the call: 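Active siRNAs have a G2 robust z of 5 or more median absolute deviations over the median, which in these data means about 38% or higher of GMNN control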

| gene knocked down | siRNA no. | G2 robust z-score | G2 cells, % of GMNN control | raw share of cells in G2 (%) | call |
| --- | --- | --- | --- | --- | --- |
| ERRFI1 (ERBB receptor feedback inhibitor 1) | 1 | 0.136 | 3.93 | 5.01 | inactive |
| ERRFI1 (ERBB receptor feedback inhibitor 1) | 2 | -0.246 | 1.24 | 4.79 | inactive |
| ERRFI1 (ERBB receptor feedback inhibitor 1) | 3 | 2.97 | 23.8 | 11.1 | inactive |
| BRPF3 (bromodomain and PHD finger containing 3) | 1 | 8.89 | 65.5 | 35.9 | active |
| BRPF3 (bromodomain and PHD finger containing 3) | 2 | -0.708 | -2.01 | 3.33 | inactive |
| BRPF3 (bromodomain and PHD finger containing 3) | 3 | -0.597 | -1.24 | 3.78 | inactive |
| P3H1 (prolyl 3-hydroxylase 1) | 1 | -0.275 | 1.04 | 3.16 | inactive |
| P3H1 (prolyl 3-hydroxylase 1) | 2 | -0.661 | -1.68 | 5.15 | inactive |
| P3H1 (prolyl 3-hydroxylase 1) | 3 | 1.65 | 14.6 | 8.22 | inactive |
| OR5B12 (olfactory receptor family 5 subfamily B member 12) | 1 | -0.642 | -1.55 | 3.24 | inactive |
| OR5B12 (olfactory receptor family 5 subfamily B member 12) | 2 | 0.288 | 4.99 | 5.58 | inactive |
| OR5B12 (olfactory receptor family 5 subfamily B member 12) | 3 | -0.56 | -0.975 | 4.22 | inactive |
| ASCC1 (activating signal cointegrator 1 complex subunit 1) | 1 | -0.814 | -2.76 | 4.7 | inactive |
| ASCC1 (activating signal cointegrator 1 complex subunit 1) | 2 | -0.806 | -2.7 | 2.76 | inactive |
| ASCC1 (activating signal cointegrator 1 complex subunit 1) | 3 | 0.351 | 5.44 | 6.25 | inactive |
| KIF20B (kinesin family member 20B) | 1 | 0.0703 | 3.46 | 6.16 | inactive |
| KIF20B (kinesin family member 20B) | 2 | -0.674 | -1.78 | 4.53 | inactive |
| KIF20B (kinesin family member 20B) | 3 | -0.857 | -3.06 | 2.15 | inactive |
| INSM2 (INSM transcriptional repressor 2) | 1 | -0.81 | -2.73 | 1.58 | inactive |
| INSM2 (INSM transcriptional repressor 2) | 2 | 0.386 | 5.68 | 6 | inactive |
| INSM2 (INSM transcriptional repressor 2) | 3 | -0.922 | -3.52 | 2.41 | inactive |
| KDSR (3-ketodihydrosphingosine reductase) | 1 | -0.791 | -2.6 | 4.28 | inactive |
| KDSR (3-ketodihydrosphingosine reductase) | 2 | -0.207 | 1.51 | 4.2 | inactive |
| KDSR (3-ketodihydrosphingosine reductase) | 3 | 3.72 | 29.1 | 15.8 | inactive |
| ODF2L (outer dense fiber of sperm tails 2 like) | 1 | -0.848 | -3 | 3.16 | inactive |
| ODF2L (outer dense fiber of sperm tails 2 like) | 2 | -0.00996 | 2.9 | 5.84 | inactive |
| ODF2L (outer dense fiber of sperm tails 2 like) | 3 | 0.16 | 4.09 | 4.33 | inactive |

Records listed so far with an active call:
| gene knocked down | siRNA no. | G2 robust z-score | G2 cells, % of GMNN control | raw share of cells in G2 (%) | call |
| --- | --- | --- | --- | --- | --- |
| BRPF3 (bromodomain and PHD finger containing 3) | 1 | 8.89 | 65.5 | 35.9 | active |

Continued:
| gene knocked down | siRNA no. | G2 robust z-score | G2 cells, % of GMNN control | raw share of cells in G2 (%) | call |
| --- | --- | --- | --- | --- | --- |
| ZNF226 (zinc finger protein 226) | 1 | 1.19 | 11.3 | 8.47 | inactive |
| ZNF226 (zinc finger protein 226) | 2 | 2.89 | 23.3 | 15.4 | inactive |
| ZNF226 (zinc finger protein 226) | 3 | -0.896 | -3.34 | 3.38 | inactive |
| FGD6 (FYVE, RhoGEF and PH domain containing 6) | 1 | -0.843 | -2.96 | 3.38 | inactive |
| FGD6 (FYVE, RhoGEF and PH domain containing 6) | 2 | 1.17 | 11.2 | 9 | inactive |
| FGD6 (FYVE, RhoGEF and PH domain containing 6) | 3 | 2.65 | 21.6 | 15.9 | inactive |
| RALGPS2-AS1 (RALGPS2 antisense RNA 1) | 1 | -0.577 | -1.09 | 3.36 | inactive |
| RALGPS2-AS1 (RALGPS2 antisense RNA 1) | 2 | 4.19 | 32.4 | 15.3 | inactive |
| RALGPS2-AS1 (RALGPS2 antisense RNA 1) | 3 | -0.342 | 0.561 | 3.22 | inactive |
| ANKRD36 (ankyrin repeat domain 36) | 1 | -1.26 | -5.91 | 1.75 | inactive |
| ANKRD36 (ankyrin repeat domain 36) | 2 | -1.01 | -4.12 | 1.61 | inactive |
| ANKRD36 (ankyrin repeat domain 36) | 3 | 2.24 | 18.7 | 12.7 | inactive |
| AOC2 (amine oxidase copper containing 2) | 1 | 4.92 | 37.6 | 18 | inactive |
| AOC2 (amine oxidase copper containing 2) | 2 | -0.934 | -3.6 | 3.49 | inactive |
| AOC2 (amine oxidase copper containing 2) | 3 | -1.4 | -6.91 | 2.62 | inactive |
| FASTK (Fas activated serine/threonine kinase) | 1 | 3.26 | 25.9 | 13.6 | inactive |
| FASTK (Fas activated serine/threonine kinase) | 2 | 0.254 | 4.76 | 5.21 | inactive |
| FASTK (Fas activated serine/threonine kinase) | 3 | 0.108 | 3.73 | 6.55 | inactive |
| PSG3 (pregnancy specific beta-1-glycoprotein 3) | 1 | 3.04 | 24.4 | 15.3 | inactive |
| PSG3 (pregnancy specific beta-1-glycoprotein 3) | 2 | 0.42 | 5.92 | 6.56 | inactive |
| PSG3 (pregnancy specific beta-1-glycoprotein 3) | 3 | -0.53 | -0.76 | 3.08 | inactive |
